Experimental data published in PubChem BioAssay AID493014 (National Center for Advancing Translational Sciences (NCATS), 2011).
In all, about 340,000 compounds went through this assay and about 170 (0.05%) were called active. The shares of active, inactive and inconclusive entries below differ from those in the screen. Calls follow the shape of the dose curve; as a rule, active = well fitted inhibition curve with a large enough effect in the signal ratio, with a control signal flat (not every such curve was filed as active); inconclusive = small, poorly fitted or top-dose-only effect, or effect the other way, or a change in a side signal; inactive = flat fitted curve, though single readings scatter; the % refers to the signal ratio. Potencies beside an inconclusive call are fits to weak or partial responses and may not hold up.

test: qHTS Assay to Find Inhibitors of Chronic Active B-Cell Receptor Signaling; settings: ABC-DLBCL IkBa-CBG/CBR reporter, luminescence ratio (green luciferase fused to IkBa over red control in TMD8 lymphoma cells), 4 h; activity change, negative = inhibition: at 46.1 µM (top of the series) unless noted;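 as to activity change, negative = inhibition: plate controls were basal doxycycline-induced cells for no effect and cells given 10 µM MG132 for full effect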
Outline: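 Concentration-response series (up to 46 uM) were applied to TMD8 dual-reporter cells for 4 h at 37C with doxycycline. Green/red ratio, after filter-overlap correction, defined %Activity; red signal alone was normalised to basal cells and zero luminescence.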
Potency is read from the fitted curve at half-maximal effect.

| SMILES | Potency | activity change, negative = inhibition |
| --- | --- | --- |
| CCCc1nnc(NC(=O)c2cccs2)s1 | inconclusive: 25.1 µM [falling, single point] | – |
| O=C(NCCc1c[nH]c2ccccc12)N[C@@H](Cc1ccccc1)C(=O)O | – | inconclusive: 2.88% |
| COc1cccc(-c2nc3n(n2)C(c2ccc4c(c2)OCO4)C(C(N)=O)=C(C)N3)c1 (stereo not given) | inconclusive: 15.8 µM [falling, single point] | – |
| O=C(/C=C/c1ccccc1)NC(=S)Nc1ccccc1O | inconclusive: 22.4 µM [falling, single point] | – |
| O=C(NCc1ccncc1)C(=O)Nc1nc2ccccc2s1 | – | inconclusive: 0.652% |
| CCc1ccc(-c2nc(CN3CCC(C(=O)NCc4ccc(F)cc4)CC3)c(C)o2)cc1 | – | inconclusive: 4.68% |
| CC(=O)Nc1ccc(NC(=O)C(C)OC(=O)CCCOc2ccc(Cl)c(C)c2)cc1 (stereo not given) | – | inactive: 13.1% |
| O=C(OCC(=O)N1CCN(c2ccccc2)CC1)c1ccc(O)cc1O | – | inconclusive: -18% |
| COc1cc(C2C(C(=O)c3cc4ccccc4o3)=C(O)C(=O)N2CCN2CCOCC2)ccc1OCCC(C)C (stereo not given) | – | inconclusive: -6.92% |
| Nc1nc(-c2ccccc2)cc(-c2ccccc2O)n1 | inconclusive: 7.94 µM [rising, partial curve, poor fit] | – |
| CC1=CC(C)(C)Nc2ccc(OC(=O)CN3C(=O)c4cccc5cccc(c45)C3=O)cc21 | inconclusive: 8.91 µM [falling, partial curve, poor fit] | – |
| CC1CCN(C(=O)Cn2c(SCC(=O)Nc3nccs3)nc3ccccc32)CC1 | – | inconclusive: 17.1% |
| N#Cc1ccc(CN2CCN(C(=O)CCNS(=O)(=O)c3ccc(F)c(F)c3)CC2)cc1 | – | inconclusive: 7.21% |
| O=C(Oc1cccc2cccnc12)c1cccc(N2C(=O)C3C4CCC(C4)C3C2=O)c1 (stereo not given) | inconclusive: 18.4 µM [falling, partial curve] | – |
| COc1ccc(NCC(=O)Nc2ccc(Br)cc2F)c(OC)c1 | – | inconclusive: -21.7% |
| NC(=O)c1nn(Cc2ccccc2)c(=O)c2ccccc12 | – | inactive: -10.3% |
| O=C(NC1CCCCC1)C(c1cccnc1)N(C(=O)CCl)c1cccc(Cl)c1 (stereo not given) | inconclusive: 23.1 µM [falling, single point] | – |
| COc1ccc(C(=O)C[n+]2ccc3ccccc3c2C)cc1 | – | inconclusive: 17.5% |
| O=C(c1ccc(F)cc1)N1CCN(c2ccc([N+](=O)[O-])c(N3CCCCC3)c2)CC1 | – | inconclusive: -17.9% |
| O=C(CCN1C(=O)/C(=C/c2ccccc2Cl)SC1=S)Nc1ccccc1C(=O)O | – | inconclusive: -4.97% |
| CCOC(=O)C1CCN(Cc2cccc(Oc3ccc(Cl)cc3)c2)CC1 | – | inactive: -0.301% |
| CC(C)Cn1c(-c2ccco2)n[nH]c1=S | – | inconclusive: -3.37% |
| Cc1cc(NC(=O)c2ccccc2)no1 | – | inconclusive: 2.07% |
| CCCC(=O)NC(c1ccccc1OC)c1ccc2cccnc2c1O (stereo not given) | – | inconclusive: -3.66% |
| Cc1ccc(SCc2[nH]nc3c2C(c2ccc(C)o2)C(C#N)=C(N)O3)cc1 (stereo not given) | – | inactive: 21.1% |
| C[C@H](CO)N1C[C@H](C)[C@@H](CN(C)C(=O)Nc2ccccc2)Oc2ccc(NC(=O)c3ccncc3)cc2C1=O | – | inconclusive: 1.74% |
| CN(C)NC(=S)NC(=O)C12CC3CC(CC(C3)C1)C2 | inconclusive: 7.08 µM [falling, partial curve] | – |

| SMILES | Potency | activity change, negative = inhibition |
| --- | --- | --- |
| CCOc1cc(C=C(C#N)C#N)ccc1Oc1ccc([N+](=O)[O-])cn1 | inconclusive: 35.5 µM [falling, single point] | – |
| Cc1ccc2nc(C3CCCCC3)[nH]c2c1 | inconclusive: 17.8 µM [falling, single point] | – |
| O=C(COC(=O)c1ccc(Cl)nc1)c1ccc2c(c1)OCCO2 | – | inconclusive: -6.44% |
| COc1ccc(N2CCN(C(=O)CSc3nnc(Cn4nnc5ccccc54)n3C)CC2)cc1 | – | inconclusive: 3.63% |
| CCOC(=O)N/N=C/C(Cl)=C/c1ccccc1 | – | inactive: -2.06% |
| Nc1nc(NC(=O)c2ccco2)nn1-c1ccccc1 | inconclusive: 25.1 µM [falling, single point] | – |
| Cc1nc(-c2ccccc2)sc1-c1nc(-c2cccnc2)ncc1S(=O)(=O)c1ccccc1 | – | inconclusive: 11.4% |
| O=C(/C=C/c1ccc(Cl)cc1)Nc1ccccc1N1CCOCC1 | inconclusive: 1.16 µM [falling, partial curve, poor fit] | – |
| Cc1cc(C)cc(OCC(=O)OCC(=O)N(C)CC(=O)Nc2ccc(F)cc2)c1 | – | inactive: 8.24% |
| CCOC(=O)c1sc(NC(=O)c2ccc(=O)[nH]c2)nc1C | – | inconclusive: -10.3% |
| COC(=O)c1ccc(NC(=O)CSCc2ccccc2)cc1 | – | inactive: -0.512% |
| O=Cc1ccc2noc(-c3ccc(Cl)cc3)c2c1 | – | inconclusive: 14.6% |
| Cc1cc(OCC(=O)N2CCc3ccccc3C2)c2c(-c3ccccc3)cc(=O)oc2c1 | inconclusive: 14.6 µM [falling, partial curve] | – |
| CCCc1nn(C)c(C(=O)Nc2cccc(CC)c2)c1Cl | – | inconclusive: -0.335% |
| CCOC(=O)C1C(c2ccccc2)NC(=S)NC1(C)O (stereo not given) | – | inconclusive: -13.7% |
| O=C1Nc2cc(Cl)c(Cl)cc2N(O)N1c1ccc(Cl)c(Cl)c1 | inconclusive: 20 µM [falling, partial curve] | – |
| COc1cccc(Nc2nc(-c3sc(C)nc3C)cs2)c1 | inconclusive: 31.6 µM [falling, single point] | – |
| Cc1ccc(SCC(=O)c2ccc(CC(=O)O)s2)cc1 | inconclusive: 35.5 µM [rising, single point] | – |
| Cc1ccccc1NC(=S)NNC(=O)c1csc2c1CCC(C)C2 (stereo not given) | inconclusive: 5.8 µM [falling, partial curve] | – |
| O=C(Nc1ccc(C(=O)O)cc1)Nc1cccc2ccccc12 | inconclusive: 10 µM [falling, partial curve] | – |
| O=C1CSCC(=O)N1c1ccccc1 | – | inconclusive: -1.72% |
| O=[N+]([O-])/C(C(Cl)=C(Cl)Cl)=C(/NC1CC1)Sc1ccccc1 | inconclusive: 35.5 µM [falling, single point] | – |
| Cn1c(=O)oc2cc(S(=O)(=O)NCc3ccc(C(=O)O)cc3)ccc21 | inconclusive: 35.5 µM [falling, single point] | – |
| C(=C\c1ccccn1)/c1ccncc1 | – | inconclusive: 0.411% |
| O=[N+]([O-])c1nn(-c2ccccc2)[n+]([O-])c1N1CCN(c2ccccc2F)CC1 | inconclusive: 35.5 µM [falling, partial curve, poor fit] | – |
| Cc1cccc(NC(=O)C2CCN(S(=O)(=O)c3c(C)c(C)cc(C)c3C)CC2)n1 | – | inconclusive: 8.64% |
| COc1ccccc1-c1c(C)nn2c(N3CCN(c4cccc(Cl)c4)CC3)cc(C)nc12 | – | inactive: -2.64% |

Another view of part of the listing above:
CC(C)Cn1c(-c2ccco2)n[nH]c1=S
  activity change, negative = inhibition: inconclusive: -3.37%
CCOC(=O)N/N=C/C(Cl)=C/c1ccccc1
  activity change, negative = inhibition: inactive: -2.06%

(continued)

| SMILES | Potency | activity change, negative = inhibition |
| --- | --- | --- |
| COc1cc(NC(=O)CSc2ccccc2)c(C(=O)O)cc1OC | inconclusive: 23.1 µM [falling, partial curve, poor fit] | – |
| COC(=O)n1c(SC)nc2ccccc21 | – | inconclusive: -14.8% |
| COc1ccc(OC)c2c(N3CC(C)OC(C)C3)cc(C(F)(F)F)nc12 (stereo not given) | – | inconclusive: -4.54% |
| Cc1ccc(C(=O)NC(=S)NCC2CCCO2)cc1 (stereo not given) | – | inactive: -0.217% |
| O=C(Nc1nccs1)c1nc(-c2ccccc2)n(-c2ccccc2)n1 | – | inconclusive: 5.11% |
| COCC(=O)N(c1ccc(C(C)C)cc1)C1C=CS(=O)(=O)C1 (stereo not given) | – | inconclusive: -0.106% |
| COc1ccc(OC)c(NC(=S)N(CCc2c(C)[nH]c3ccc(C)cc23)Cc2cccs2)c1 | – | inactive: 2.73% |
| O=C(N=C1SCC(=O)N1c1ccccc1)c1ccco1 | inconclusive: 0.651 µM [falling, full curve, poor fit] | – |
| FC(F)(F)c1ccccc1NC(=S)N/N=C1\CC2CC=CC12 (stereo not given) | inconclusive: 35.5 µM [cytotoxic, single point] | – |
| CCOc1cccc2sc(Nc3nc4ccc(NC(C)=O)cc4s3)nc12 | – | inconclusive: 0.0015% |
| CCOc1cc(C2c3c(-c4ccccc4)n[nH]c3C(=O)N2c2ccc(C(=O)O)cc2)ccc1O (stereo not given) | inconclusive: 11.2 µM [falling, partial curve] | – |
| COc1ccc(NC(=O)Nc2cccc3cccnc23)cc1 | inconclusive: 25.1 µM [falling, single point] | – |
| Fc1ccc(CN2CCN3CCCC3C2C2CCCCC2)cc1F (stereo not given) | – | inactive: -3.93% |
| O=C(C1=C(O)C(=O)N(CC2CCCO2)C1c1ccccc1)c1ccco1 (stereo not given) | – | inactive: 0.348% |
| CCC1S/C(=N/N=C/c2ccco2)N(Cc2ccccc2C)C1=O (stereo not given) | – | inconclusive: -3.52% |
| Cc1ccc(NC(=O)C(=O)NCCOc2ccccc2Cl)cc1 | – | inactive: -2.1% |
| Cc1cccc(/C(N)=N/OC(=O)c2cccc3ccccc23)c1 | – | inactive: 5.77% |
| COc1cccc(CNC(=O)CCC2CCCN(C(=O)CCn3cncn3)C2)c1 (stereo not given) | – | inactive: 7.98% |
| Cc1ccc(S(=O)(=O)n2nnc3ccccc32)c(C)c1C | – | inconclusive: -12.4% |
| COc1cccc(Cn2c(-c3nonc3N)nc3ccccc32)c1 | – | inconclusive: 6.5% |
| COC(=O)C1=C(C)NC(=O)C1(NC(=O)CN1CCCC1=O)C(F)(F)F (stereo not given) | – | inconclusive: 1.87% |
| O=c1[nH]c(Nc2ccc(F)cc2)cc2ccccc12 | – | inactive: 22.5% |
| COC(=O)N/N=C/c1cn(CCOc2cccc(OC)c2)c2ccccc12 | inconclusive: 22.4 µM [falling, single point] | – |
| CCCc1nc2oc3cc(OC)ccc3c(=O)c2c(=O)n1CCc1ccccc1 | – | inconclusive: -7.44% |
| Cc1cc(C)cc(NC(=O)/C=C/c2ccc([N+](=O)[O-])s2)c1 | – | inconclusive: -157% |
| COCCN(C(=O)CSc1nnc(Nc2ccc(C)cc2)s1)c1c(N)n(CC(C)C)c(=O)[nH]c1=O | – | inactive: -1.57% |

Molecules from the list above that have a thiophene ring, fused or not, in the order listed:

| SMILES | Potency | activity change, negative = inhibition |
| --- | --- | --- |
| CCCc1nnc(NC(=O)c2cccs2)s1 | inconclusive: 25.1 µM [falling, single point] | – |
| Cc1ccc(SCC(=O)c2ccc(CC(=O)O)s2)cc1 | inconclusive: 35.5 µM [rising, single point] | – |
| Cc1ccccc1NC(=S)NNC(=O)c1csc2c1CCC(C)C2 (stereo not given) | inconclusive: 5.8 µM [falling, partial curve] | – |
| COc1ccc(OC)c(NC(=S)N(CCc2c(C)[nH]c3ccc(C)cc23)Cc2cccs2)c1 | – | inactive: 2.73% |
| Cc1cc(C)cc(NC(=O)/C=C/c2ccc([N+](=O)[O-])s2)c1 | – | inconclusive: -157% |
